These are yes or no findings as the source states them, for the method shown. Binding seen in cells or lysates may run through a third protein. Some entries that bind do so weakly or less than the wild type.

Amino acid sequences for entries named in this document (tags omitted). Residues count along the entry.
UniProt Q3TTA7: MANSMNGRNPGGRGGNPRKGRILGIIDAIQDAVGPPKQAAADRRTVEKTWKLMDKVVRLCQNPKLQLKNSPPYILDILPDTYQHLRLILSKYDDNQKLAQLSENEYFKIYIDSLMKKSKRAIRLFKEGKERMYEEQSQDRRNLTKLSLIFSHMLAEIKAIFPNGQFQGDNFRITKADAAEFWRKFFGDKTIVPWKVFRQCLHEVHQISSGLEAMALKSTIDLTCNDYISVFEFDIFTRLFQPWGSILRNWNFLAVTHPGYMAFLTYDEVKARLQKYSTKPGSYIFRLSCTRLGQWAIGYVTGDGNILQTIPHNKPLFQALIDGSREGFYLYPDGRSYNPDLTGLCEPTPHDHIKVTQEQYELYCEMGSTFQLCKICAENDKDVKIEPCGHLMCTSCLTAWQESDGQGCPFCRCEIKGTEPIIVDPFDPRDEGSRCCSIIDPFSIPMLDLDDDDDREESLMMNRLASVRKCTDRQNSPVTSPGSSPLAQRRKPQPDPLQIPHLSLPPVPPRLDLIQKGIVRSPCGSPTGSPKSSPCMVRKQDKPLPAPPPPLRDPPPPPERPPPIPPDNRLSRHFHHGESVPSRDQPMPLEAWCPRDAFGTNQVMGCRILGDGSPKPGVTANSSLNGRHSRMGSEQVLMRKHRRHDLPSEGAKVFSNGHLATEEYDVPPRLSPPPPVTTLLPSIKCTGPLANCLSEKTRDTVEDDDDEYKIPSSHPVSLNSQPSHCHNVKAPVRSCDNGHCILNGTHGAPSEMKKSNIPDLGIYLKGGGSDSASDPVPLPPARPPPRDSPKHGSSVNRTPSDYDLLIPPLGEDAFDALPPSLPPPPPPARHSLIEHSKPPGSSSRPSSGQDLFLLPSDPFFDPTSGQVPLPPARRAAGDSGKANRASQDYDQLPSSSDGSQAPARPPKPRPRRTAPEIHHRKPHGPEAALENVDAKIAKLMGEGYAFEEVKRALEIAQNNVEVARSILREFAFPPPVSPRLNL
UniProt Q01705, residues 19-2531: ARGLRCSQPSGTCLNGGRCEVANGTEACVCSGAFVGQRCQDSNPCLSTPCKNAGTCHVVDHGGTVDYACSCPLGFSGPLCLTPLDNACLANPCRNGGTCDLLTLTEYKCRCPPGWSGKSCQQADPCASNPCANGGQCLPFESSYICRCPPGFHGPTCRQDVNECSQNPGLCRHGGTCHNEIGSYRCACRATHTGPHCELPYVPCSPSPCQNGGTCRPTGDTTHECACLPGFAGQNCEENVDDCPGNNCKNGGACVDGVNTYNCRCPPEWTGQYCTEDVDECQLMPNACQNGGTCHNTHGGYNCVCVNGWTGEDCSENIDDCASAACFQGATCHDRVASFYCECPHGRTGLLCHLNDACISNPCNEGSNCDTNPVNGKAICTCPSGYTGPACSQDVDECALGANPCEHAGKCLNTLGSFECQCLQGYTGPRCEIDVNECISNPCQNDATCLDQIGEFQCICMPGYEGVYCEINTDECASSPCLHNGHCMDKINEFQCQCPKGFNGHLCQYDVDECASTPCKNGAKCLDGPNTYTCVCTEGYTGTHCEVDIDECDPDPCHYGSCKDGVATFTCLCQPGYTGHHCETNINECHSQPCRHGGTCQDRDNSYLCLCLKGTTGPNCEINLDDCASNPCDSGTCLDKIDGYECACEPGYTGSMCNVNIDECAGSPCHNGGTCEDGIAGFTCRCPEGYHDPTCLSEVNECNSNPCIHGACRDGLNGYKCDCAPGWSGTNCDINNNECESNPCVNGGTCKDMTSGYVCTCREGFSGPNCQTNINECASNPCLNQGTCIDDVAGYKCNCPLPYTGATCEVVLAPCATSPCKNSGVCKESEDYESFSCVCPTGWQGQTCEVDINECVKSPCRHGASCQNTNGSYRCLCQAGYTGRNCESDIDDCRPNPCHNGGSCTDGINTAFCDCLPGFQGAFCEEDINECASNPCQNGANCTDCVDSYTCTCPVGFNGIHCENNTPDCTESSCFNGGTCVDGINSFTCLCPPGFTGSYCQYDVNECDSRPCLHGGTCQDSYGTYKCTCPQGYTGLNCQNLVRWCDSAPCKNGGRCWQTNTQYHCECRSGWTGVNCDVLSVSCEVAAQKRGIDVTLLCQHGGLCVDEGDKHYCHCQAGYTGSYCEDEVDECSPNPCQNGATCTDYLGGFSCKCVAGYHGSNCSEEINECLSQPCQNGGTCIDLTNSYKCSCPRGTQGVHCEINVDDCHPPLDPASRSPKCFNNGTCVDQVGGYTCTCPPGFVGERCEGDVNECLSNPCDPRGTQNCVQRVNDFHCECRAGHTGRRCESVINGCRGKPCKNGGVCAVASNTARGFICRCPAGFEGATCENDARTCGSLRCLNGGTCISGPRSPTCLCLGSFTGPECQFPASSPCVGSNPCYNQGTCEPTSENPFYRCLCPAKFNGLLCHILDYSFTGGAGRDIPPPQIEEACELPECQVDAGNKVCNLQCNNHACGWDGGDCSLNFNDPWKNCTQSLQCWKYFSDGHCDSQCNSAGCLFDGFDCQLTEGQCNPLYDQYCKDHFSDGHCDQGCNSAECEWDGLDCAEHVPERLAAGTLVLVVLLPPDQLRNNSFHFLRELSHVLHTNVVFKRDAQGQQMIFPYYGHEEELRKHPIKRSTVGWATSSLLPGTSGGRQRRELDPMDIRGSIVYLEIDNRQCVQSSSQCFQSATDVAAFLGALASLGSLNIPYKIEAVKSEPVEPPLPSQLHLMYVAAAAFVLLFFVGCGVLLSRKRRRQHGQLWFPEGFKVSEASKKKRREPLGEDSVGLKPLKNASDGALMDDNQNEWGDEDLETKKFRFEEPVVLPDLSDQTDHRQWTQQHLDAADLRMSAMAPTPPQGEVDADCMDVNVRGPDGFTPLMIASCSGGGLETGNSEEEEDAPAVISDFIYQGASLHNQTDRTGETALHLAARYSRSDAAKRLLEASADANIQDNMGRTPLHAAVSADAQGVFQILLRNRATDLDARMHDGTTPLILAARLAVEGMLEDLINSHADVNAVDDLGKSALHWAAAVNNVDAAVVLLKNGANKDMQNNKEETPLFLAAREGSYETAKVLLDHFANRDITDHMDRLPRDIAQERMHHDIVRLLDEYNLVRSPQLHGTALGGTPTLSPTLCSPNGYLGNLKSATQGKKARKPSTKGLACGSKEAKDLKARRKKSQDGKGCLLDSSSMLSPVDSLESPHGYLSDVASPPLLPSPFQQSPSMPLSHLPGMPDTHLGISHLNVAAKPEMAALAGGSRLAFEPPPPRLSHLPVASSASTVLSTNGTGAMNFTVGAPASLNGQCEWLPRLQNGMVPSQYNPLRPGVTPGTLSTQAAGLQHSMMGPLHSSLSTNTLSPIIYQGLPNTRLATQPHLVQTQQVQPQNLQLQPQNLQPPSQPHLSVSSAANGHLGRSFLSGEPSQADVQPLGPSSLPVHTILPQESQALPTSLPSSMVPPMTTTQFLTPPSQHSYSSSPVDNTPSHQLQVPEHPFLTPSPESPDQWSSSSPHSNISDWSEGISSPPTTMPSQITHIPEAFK
UniProt Q8BGG7: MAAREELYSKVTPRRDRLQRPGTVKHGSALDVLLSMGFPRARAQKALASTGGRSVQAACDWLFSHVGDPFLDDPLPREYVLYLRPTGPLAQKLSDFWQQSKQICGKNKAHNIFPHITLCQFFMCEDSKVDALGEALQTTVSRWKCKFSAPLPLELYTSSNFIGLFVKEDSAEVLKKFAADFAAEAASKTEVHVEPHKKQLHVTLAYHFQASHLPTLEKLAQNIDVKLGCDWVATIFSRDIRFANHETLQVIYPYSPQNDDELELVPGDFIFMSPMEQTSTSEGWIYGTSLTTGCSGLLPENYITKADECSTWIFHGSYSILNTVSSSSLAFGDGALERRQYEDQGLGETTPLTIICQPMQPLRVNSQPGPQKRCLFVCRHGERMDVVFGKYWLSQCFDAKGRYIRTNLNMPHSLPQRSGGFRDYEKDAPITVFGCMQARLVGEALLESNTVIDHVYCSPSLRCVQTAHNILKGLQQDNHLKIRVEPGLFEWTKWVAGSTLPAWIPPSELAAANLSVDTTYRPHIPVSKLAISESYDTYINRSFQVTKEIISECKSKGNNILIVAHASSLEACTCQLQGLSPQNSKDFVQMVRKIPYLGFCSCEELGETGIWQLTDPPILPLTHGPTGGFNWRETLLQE

The test deals with Casitas B-lineage lymphoma b (Cbl-b), endogenous (mouse (endogenous in primary CD8+ T-cells)) (UniProt Q3TTA7). Nature of the test: co-IP; endogenous proteins; lysate of primary activated mouse CD8+ T-cells (Pierce IP lysis buffer); Cbl-b immunoprecipitated (anti-Cbl-b G1, Protein A/G magnetic beads), Notch1 and STS-1 co-detected by blot; beads without antibody as negative control (Supplementary Figure 3).

As to “Notch1 (endogenous, primary mouse CD8+ T-cells) (from UniProt Q01705 19-2531) (receptor)”, the binding result was “binds”. Take “Suppressor of T-cell receptor signaling 1 (STS-1), endogenous (from UniProt Q8BGG7 1-638) (enzyme)”: the binding result is given as “binds”.

(Values after article PMC9459147.)
